Laboratory results from PubChem BioAssay AID1347423 (Functional Genomics Laboratory (NCATS/FGL), 2020).
Hit rate of the full screen: of about 52,000 sequences, about 210 (0.4%) were called active.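 The calls were made as follows: active = gene whose silencing raises cell survival under the drug, median off-target-corrected z-score across its silencing RNAs 2 or more; inactive = the rest.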 The list shows a part of the results.

Test: Resistance to Poly (ADP-Ribose) Polymerase inhibitor: Gene Identification via Genome-wide siRNA Screen
Settings: mouse BRCA2 R2336H ES cells, olaparib, CellTiter-Glo viability; active compounds read high
Procedure, shortened: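 Genome-wide siRNA screen (3 siRNAs/gene, 20 nM) in mouse ES cells carrying hypomorphic BRCA2 R2336H; olaparib 500 nM added 48 h post-transfection, CellTiter-Glo viability 72 h later. Normalized to plate-median negative control; MAD z-scores, gene median, seed-adjusted.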

| Sequence | z-score |
| --- | --- |
| GCAAGACUGACCUAGAUUATT against 6530401P13 | inactive: -0.601 |
| GGAUGGAUGACUCCUAUUGTT against Gse1 | inactive: -2 |
| GAUGCCUGACGAGAUAUUUTT against Scgb3a1 | inactive: -0.179 |
| GGUGUUGUGAGUGAAGAGGTT against Rbed1 | inactive: -1.17 |
| GGCCAGUAGAUCCUUCUAATT against Fgf16 | inactive: 0.554 |
| GGUAUGAAACCGUAUAAAUTT against Zfp60 | inactive: 0.135 |
| GGACUUCUCCUUUAAUAAUTT against Cox7a2l | inactive: -0.0527 |
| GGGCAGCAUCGGACUAAAUTT against Agtr1 | inactive: 1.22 |
| GGAAGAAAGGAAAAAAGCUTT against Gnrhr | inactive: 1.69 |
| CCACUGACAACAAGUUGUUTT against Glra2 | inactive: -1.23 |
| GGUUUUUCUCCUUGGUUAUTT against BC031593 | inactive: 0.00568 |
| GGUUCUUCAAGUCAGAUUUTT against Atp6v1b1 | inactive: 0.0425 |
| GCAAUGGAGAGCAGAAAUATT against C230012O17Rik | inactive: -0.723 |
| GCGUGACCAGUUCAGUGAATT against Tnfrsf17 | inactive: -1.45 |
| GGAGAGGAAAAUCAUCCUGTT against Rims2 | inactive: 1.88 |
| GGCUCCUGUAUCUUGAUGUTT against A230102I05Rik | inactive: 0.169 |
| GGUAAGGAAAACAAAUAUGTT against En1 | inactive: 0.217 |
| AUUCUGAACACUCCUCGGATT against C630041L24Rik | inactive: -0.69 |
| GGCCUUUAUUCAGAUGUCATT against Zfp96 | inactive: -1.58 |
| GCCACCAACUCAGGUAGAATT against Nrip2 | inactive: 1.2 |
| GGAAGAUGGGAAGAAAUUCTT against Eif3s4 | inactive: -2.14 |
| GGCCUUGUACUUACACAAGTT against Rspondin | inactive: 0.508 |
| CCAUGAAGAUAUCCUACACTT against Olfr77 | inactive: -0.285 |
| GGAUGUACAUUCUACCUAUTT against Bap1 | inactive: 2.37 |
| GGAGUUGCCCUCAUCUUCATT against Casp6 | inactive: -0.427 |
| GGAAGCAUGCAAUGAUAUUTT against 4.93E+26 | inactive: -0.275 |

| Sequence | z-score |
| --- | --- |
| GUUCUAUGUCCGGGAGCCATT against Ndufc1 | inactive: -2.39 |
| GGACCAAUUUUUUCAGUUGTT against Rhag | inactive: -0.771 |
| GCAGGUUGCACCAUGUAGATT against 2900084M01Rik | inactive: 1.2 |
| GCUCUACAUGAAAACACUGTT against AU041707 | inactive: -0.539 |
| GCUGUUCAUUGAGUAUCCCTT against 6430527G18Rik | inactive: 0.0522 |
| GGGAUUGGUGAAGAAAAAATT against Pcoln3 | inactive: -1.49 |
| GGUGCUAGAUGAGCUGACCTT against Krt1-16 | inactive: -0.398 |
| GCCACCACUUAGUUUAACATT against Cpa4 | inactive: 0.597 |
| GGCUAAGAGACGAAACACUTT against Rpl37 | inactive: -3.35 |
| GGGUGAAUUUCAAAAGCUATT against D6Ertd538e | inactive: -1.18 |
| GACAUUUGUAUGCAGUCAUTT against V1ri9 | inactive: 0.237 |
| GCCCAAAAGACCUCAUAUUTT against Lef1 | inactive: -0.891 |
| CCUAUUGUGCAAAUGAACCTT against Cd164 | inactive: -0.152 |
| GGCCAGCAGACUAUUUAUUTT against 1110021N07Rik | inactive: -1.57 |
| CCUCAGCAAAUAUAUGGCATT against 1700008F21Rik | inactive: 1.08 |
| GCUAGUUACAUCAUAUGCUTT against Gpr171 | inactive: 0.694 |
| GCUGAGACAUGUGGAGUAUTT against 4931429L15Rik | inactive: -2.9 |
| GGUCAGGUCUUUUUAUACATT against Zfp354a | inactive: 2.18 |
| GGCUCUGGGUCAACAUUUGTT against 2310011J03Rik | inactive: -0.427 |
| GGCAGAAACGUGUCACCAUTT against Tsx | inactive: -1.42 |
| CCUACAGAGUACAGAUUAUTT against Atp6v0d1 | inactive: -2.2 |
| GGACCUGACUCAGCUCUUUTT against Dpp7 | inactive: -0.554 |
| GGACCAAGAGAUUUGCUAUTT against Abcc2 | inactive: 0.125 |
| GGACAAUGCAGCCUACUACTT against Gnaz | inactive: -0.138 |
| CCAAUUACUUGAAUUUAGCTT against Gata5 | inactive: 0.483 |
| GGAAACUCUUCACCACAAATT against 4931420D14Rik | inactive: -0.704 |

For convenience, some entries already given:

| Sequence | z-score |
| --- | --- |
| CCUAUUGUGCAAAUGAACCTT against Cd164 | inactive: -0.152 |
| GGCCAGCAGACUAUUUAUUTT against 1110021N07Rik | inactive: -1.57 |
| CCUCAGCAAAUAUAUGGCATT against 1700008F21Rik | inactive: 1.08 |

(next part)

| Sequence | z-score |
| --- | --- |
| GGAGAUUGACUUCAAGGAGTT against S100a5 | inactive: -0.0992 |
| CCCACAUUGCUUACCUUUCTT against Zfp523 | inactive: -0.0271 |
| CCUUCUACUGGCAACCUAUTT against Zfp110 | inactive: -1.48 |
| GGAAUCCUGGAUUGAGGAATT against Rhod | inactive: -0.926 |
| GGAGAAGGGUGUUUCAGCUTT against Usp29 | inactive: 0.264 |
| CGAAACAUCAAUAAAUGCUTT against Penk1 | inactive: 0.294 |
| CGUAGUGUUCUGUGUUUAUTT against Mif | inactive: 0.539 |
| GGAGGUAGGAAGGAAGAAGTT against 1500003O22Rik | inactive: 0.13 |
| GCUUUGUGCCAUCUCUACATT against Tlr13 | inactive: -2.31 |
| GCACUUUACCCACUGAACCTT against AA881470 | inactive: -0.347 |
| CCAUGGUCUUGAAUUAUUCTT against Syt4 | inactive: 1.93 |
| GUCAUGAAUGGGCUACUAATT against Olfr1447 | inactive: -0.797 |
| GCAAUUGAUUGACUGAGAATT against Calm3 | inactive: 0.789 |
| GGUGAUGUGGAAUAAAUUGTT against Odf4 | inactive: 0.64 |
| GGUCUUUUGUUACCUUAGUTT against Sult1b1 | inactive: -0.455 |
| GCCUAAGAUCUGGACCUAATT against Timm44 | inactive: -1.82 |
| CCAUCUUACAGAUUACCAATT against 1200007B05Rik | inactive: -0.892 |
| GCUAGAAGUAGAGAAUCAGTT against Plekhh2 | inactive: 1.28 |
| GGGAUGCUUUGUGGCUGUATT against Olfr837 | inactive: -2.42 |
| GGACCUUUAGCUGGUUUAGTT against A830006N08Rik | inactive: -2.51 |
| GUCUUUUUUCUUUUUGACCTT against Olfr168 | inactive: -0.448 |
| GGGAUGGGCUUCUGAAUAATT against V1rh8 | inactive: -2.51 |
| GGCUUUAGAGACAAUAUCATT against AA407930 | inactive: -0.282 |
| GCUCGCUAAAGUGAUUAAATT against LOC433384 | inactive: 1.02 |
| GCAAAGCUUAAAAGUGAAGTT against C730025P13Rik | inactive: 0.151 |
| CCUAAGAUAGACUAAAUCGTT against 1700001G17Rik | inactive: 0.0267 |

| Sequence | z-score |
| --- | --- |
| GGAGCUGGAGAAGUUACUUTT against Amigo3 | inactive: 1.11 |
| GGGAUGUUCUAUGUAAUAATT against Cog4 | inactive: 0.671 |
| GGUUUGGAAUCAAAACAAGTT against 5830433M19Rik | inactive: 0.872 |
| GGAAGAUUGAAAUAGGCGATT against Mds1 | inactive: 1.06 |
| GGGCAUCUUGUAUAUCUGGTT against 4732415M23Rik | inactive: -0.395 |
| GCACGAUGUACCUGAAUCUTT against Ifitm5 | inactive: -0.324 |
| GGCACAAGUAACAGGCUCATT against Egfr | inactive: -2.19 |
| GCUUCGACAAAAGAAGAUGTT against C130022K22Rik | inactive: -0.485 |
| GGAUUGGUUAUCAGGGCUATT against 2510038A11Rik | inactive: -1.93 |
| ACACCUGCCUGCAUCUACUTT against Tcp10a | inactive: 1.25 |
| GGCUUCAGCAAAGACAAUGTT against Ache | inactive: -0.637 |
| GGAAAGACCUAAGCAAUUATT against Btbd5 | inactive: -0.251 |
| GGGAAGAGUUUCACGCUCATT against Runx3 | inactive: 0.761 |
| CCUGUUGCUAAUCUCACAATT against Fcgr3 | inactive: -0.575 |
| GAAGCCUAACCUCACCCUGTT against Ang1 | inactive: 0.195 |
| GGAUCCAGAGGCUGUUAAATT against Casp9 | inactive: -0.629 |
| GGUGGUAGAUAUUGUCCAUTT against Olfr420 | inactive: -0.254 |
| GGUCUAGGUCUGAAGAUCCTT against Stxbp4 | inactive: 1.48 |
| GGGCUGUGGAAACAAUUUATT against 9430016A21Rik | inactive: 0.534 |
| CCUUUGGAAUUUCUAAUACTT against Sil | inactive: 1.33 |
| GGAGCAGUCUAUCUUUGGUTT against Dbn1 | inactive: -1.07 |
| GGACAAUUGAAUACCUAGATT against Hadha | inactive: 1.9 |
| GGAAACACGUCUCCUCCAUTT against Krt2-25 | inactive: -0.0404 |
| GCCACCUUUAAAGAACCUUTT against Zfhx1a | inactive: -1.56 |
| GGAGCAGGAAGUAUGAAUGTT against Gpr39 | inactive: 0.593 |
| GGAGGAGUUUGACUUCGACTT against Alox12 | inactive: -0.128 |
